Test results published in the supplement of paper PMC10849652.
This is one part of the list.

Chains of the proteins cited; added tags and fusions are not shown. Lines headed by an entry give the natural chain unless they say otherwise; changes in a name come on top.
UniProt P15954, whole entry, looked up: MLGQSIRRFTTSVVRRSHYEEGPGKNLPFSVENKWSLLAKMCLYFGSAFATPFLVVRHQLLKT
UniProt Q86X83, whole entry, looked up: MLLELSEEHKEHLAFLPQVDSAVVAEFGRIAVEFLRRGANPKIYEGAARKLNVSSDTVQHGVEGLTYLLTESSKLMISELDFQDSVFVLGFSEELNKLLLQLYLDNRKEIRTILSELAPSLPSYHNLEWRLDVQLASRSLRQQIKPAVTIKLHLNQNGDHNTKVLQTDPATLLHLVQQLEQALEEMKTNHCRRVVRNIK
UniProt Q9UBI1, whole entry, looked up: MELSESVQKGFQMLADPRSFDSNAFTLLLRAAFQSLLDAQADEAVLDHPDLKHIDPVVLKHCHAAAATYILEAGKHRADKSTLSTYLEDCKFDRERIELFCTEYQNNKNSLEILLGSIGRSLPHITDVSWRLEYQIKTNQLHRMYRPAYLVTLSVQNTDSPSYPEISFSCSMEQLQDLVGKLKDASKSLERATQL
UniProt P31327: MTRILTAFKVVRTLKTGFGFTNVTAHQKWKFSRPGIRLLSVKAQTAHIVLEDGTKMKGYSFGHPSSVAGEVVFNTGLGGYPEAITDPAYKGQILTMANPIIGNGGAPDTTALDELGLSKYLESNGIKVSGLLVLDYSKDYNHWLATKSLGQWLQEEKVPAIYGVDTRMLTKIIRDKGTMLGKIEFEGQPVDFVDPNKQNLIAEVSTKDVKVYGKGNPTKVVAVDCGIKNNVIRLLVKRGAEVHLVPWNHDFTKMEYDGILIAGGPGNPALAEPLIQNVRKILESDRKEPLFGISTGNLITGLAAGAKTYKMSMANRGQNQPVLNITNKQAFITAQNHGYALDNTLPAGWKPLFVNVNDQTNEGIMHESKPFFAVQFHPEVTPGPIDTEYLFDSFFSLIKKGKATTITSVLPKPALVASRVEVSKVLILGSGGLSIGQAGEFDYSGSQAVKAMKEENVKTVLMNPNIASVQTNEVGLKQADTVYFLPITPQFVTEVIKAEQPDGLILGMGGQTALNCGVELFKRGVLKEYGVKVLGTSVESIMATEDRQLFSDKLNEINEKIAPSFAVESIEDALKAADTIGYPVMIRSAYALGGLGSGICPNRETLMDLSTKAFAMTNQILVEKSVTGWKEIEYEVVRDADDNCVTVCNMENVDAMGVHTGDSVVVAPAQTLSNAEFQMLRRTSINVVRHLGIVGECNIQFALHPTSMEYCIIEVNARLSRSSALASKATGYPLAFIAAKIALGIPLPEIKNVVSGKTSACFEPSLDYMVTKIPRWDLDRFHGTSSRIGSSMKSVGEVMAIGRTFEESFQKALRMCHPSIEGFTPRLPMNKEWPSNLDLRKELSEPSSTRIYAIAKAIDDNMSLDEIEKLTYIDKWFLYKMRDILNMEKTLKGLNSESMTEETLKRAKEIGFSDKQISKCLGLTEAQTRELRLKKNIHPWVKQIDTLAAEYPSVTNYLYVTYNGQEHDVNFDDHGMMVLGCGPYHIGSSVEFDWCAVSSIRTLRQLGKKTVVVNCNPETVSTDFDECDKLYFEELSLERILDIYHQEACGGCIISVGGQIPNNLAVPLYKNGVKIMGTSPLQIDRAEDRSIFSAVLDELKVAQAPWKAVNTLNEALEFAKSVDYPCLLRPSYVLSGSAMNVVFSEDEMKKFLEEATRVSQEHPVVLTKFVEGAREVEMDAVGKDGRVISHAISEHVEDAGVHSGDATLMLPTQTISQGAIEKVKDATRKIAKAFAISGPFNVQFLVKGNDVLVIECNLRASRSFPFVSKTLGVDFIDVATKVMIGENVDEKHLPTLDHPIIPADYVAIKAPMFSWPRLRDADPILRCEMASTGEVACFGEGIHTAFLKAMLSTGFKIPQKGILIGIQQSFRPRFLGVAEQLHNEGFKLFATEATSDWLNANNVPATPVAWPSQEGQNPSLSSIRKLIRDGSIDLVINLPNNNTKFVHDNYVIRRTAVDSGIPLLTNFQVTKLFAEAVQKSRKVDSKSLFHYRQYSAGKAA
UniProt Q5JTJ3: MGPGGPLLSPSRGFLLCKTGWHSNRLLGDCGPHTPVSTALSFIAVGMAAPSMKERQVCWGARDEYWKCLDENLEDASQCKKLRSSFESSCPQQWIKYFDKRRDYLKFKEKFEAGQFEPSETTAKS
UniProt Q9BT09: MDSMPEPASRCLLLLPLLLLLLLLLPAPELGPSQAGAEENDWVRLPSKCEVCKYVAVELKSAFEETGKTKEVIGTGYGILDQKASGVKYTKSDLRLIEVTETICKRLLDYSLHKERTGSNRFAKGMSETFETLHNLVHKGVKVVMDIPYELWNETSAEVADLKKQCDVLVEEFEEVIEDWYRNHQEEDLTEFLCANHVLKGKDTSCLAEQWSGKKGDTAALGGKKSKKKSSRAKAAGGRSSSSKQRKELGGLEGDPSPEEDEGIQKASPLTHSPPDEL
UniProt Q8WTW3: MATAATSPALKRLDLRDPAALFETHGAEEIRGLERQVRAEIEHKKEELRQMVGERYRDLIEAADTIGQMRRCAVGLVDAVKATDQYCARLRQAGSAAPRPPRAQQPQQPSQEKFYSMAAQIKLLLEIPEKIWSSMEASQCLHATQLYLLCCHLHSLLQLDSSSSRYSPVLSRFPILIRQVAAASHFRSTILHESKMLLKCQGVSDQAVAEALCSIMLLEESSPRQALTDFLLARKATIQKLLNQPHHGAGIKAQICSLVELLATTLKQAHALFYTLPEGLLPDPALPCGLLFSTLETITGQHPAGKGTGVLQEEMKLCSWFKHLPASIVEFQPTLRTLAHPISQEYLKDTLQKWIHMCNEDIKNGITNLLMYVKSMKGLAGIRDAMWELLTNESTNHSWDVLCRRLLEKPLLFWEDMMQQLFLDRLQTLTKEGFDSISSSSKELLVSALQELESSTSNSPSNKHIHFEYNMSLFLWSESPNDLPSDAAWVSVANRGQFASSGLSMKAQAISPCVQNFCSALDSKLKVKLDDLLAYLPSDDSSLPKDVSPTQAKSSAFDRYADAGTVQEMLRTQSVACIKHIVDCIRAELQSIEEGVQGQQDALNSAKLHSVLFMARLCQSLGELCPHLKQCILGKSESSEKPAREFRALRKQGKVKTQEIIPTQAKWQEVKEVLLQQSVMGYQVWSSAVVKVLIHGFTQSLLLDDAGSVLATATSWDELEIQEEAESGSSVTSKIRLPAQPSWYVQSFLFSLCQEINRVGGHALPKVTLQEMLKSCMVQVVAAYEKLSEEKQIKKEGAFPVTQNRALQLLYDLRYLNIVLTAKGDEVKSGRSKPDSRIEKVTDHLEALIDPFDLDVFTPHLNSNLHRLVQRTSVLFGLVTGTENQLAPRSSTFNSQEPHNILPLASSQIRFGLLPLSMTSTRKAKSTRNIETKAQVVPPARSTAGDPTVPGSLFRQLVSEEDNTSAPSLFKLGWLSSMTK
UniProt Q9H3G5: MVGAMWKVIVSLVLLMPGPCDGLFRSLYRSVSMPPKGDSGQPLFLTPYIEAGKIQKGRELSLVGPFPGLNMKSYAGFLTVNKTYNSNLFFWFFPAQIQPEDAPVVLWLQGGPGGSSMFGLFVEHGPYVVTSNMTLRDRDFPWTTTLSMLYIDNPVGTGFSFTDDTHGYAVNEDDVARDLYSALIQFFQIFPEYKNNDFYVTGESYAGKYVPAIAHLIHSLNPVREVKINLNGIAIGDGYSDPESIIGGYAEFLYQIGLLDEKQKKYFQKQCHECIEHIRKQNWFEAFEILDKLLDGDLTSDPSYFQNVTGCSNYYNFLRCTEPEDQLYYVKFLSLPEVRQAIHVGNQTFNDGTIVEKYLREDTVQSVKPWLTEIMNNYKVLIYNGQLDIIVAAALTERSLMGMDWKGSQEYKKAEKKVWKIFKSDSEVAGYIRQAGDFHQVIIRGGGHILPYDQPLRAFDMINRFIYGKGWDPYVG
UniProt P36551: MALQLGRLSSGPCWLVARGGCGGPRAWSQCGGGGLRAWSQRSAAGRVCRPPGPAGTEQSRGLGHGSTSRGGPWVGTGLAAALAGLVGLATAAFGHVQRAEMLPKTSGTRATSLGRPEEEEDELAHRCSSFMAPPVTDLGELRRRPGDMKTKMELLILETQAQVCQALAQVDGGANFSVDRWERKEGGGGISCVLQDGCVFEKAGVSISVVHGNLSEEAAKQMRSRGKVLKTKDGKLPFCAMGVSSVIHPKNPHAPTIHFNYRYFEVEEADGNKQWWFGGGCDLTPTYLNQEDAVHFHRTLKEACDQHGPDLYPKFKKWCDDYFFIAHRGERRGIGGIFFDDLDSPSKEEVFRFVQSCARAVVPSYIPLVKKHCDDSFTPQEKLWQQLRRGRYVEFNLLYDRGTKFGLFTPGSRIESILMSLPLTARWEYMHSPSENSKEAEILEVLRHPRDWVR
UniProt Q6P4Q7: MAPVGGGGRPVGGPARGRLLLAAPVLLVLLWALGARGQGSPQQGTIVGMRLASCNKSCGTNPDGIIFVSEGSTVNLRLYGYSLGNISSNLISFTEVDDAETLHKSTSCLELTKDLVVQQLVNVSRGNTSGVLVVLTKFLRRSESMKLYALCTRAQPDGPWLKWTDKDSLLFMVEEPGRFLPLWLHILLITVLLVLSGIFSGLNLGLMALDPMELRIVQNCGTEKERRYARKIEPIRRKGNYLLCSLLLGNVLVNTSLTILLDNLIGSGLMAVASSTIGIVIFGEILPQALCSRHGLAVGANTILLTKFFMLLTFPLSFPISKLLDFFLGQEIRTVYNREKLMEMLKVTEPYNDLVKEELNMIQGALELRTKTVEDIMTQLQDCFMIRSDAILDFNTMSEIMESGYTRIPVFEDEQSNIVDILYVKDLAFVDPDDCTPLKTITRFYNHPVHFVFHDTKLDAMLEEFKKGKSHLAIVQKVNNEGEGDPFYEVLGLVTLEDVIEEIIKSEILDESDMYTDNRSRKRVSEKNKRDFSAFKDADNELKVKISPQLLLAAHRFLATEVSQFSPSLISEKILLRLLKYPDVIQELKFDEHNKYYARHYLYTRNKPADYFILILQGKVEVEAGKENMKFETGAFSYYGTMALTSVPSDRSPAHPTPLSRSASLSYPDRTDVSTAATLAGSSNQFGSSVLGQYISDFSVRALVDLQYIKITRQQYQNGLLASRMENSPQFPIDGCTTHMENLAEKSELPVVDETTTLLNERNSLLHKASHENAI
UniProt Q9NQ92: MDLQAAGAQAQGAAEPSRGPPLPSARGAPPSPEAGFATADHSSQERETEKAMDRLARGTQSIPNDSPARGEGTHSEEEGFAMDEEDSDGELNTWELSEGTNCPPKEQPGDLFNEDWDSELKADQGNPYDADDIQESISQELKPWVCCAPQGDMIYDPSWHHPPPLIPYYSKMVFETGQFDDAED
UniProt P10606, whole entry, looked up: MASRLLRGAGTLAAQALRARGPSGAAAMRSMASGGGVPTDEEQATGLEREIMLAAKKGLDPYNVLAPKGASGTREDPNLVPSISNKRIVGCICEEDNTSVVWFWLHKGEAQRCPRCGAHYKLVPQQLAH
UniProt Q8NE01: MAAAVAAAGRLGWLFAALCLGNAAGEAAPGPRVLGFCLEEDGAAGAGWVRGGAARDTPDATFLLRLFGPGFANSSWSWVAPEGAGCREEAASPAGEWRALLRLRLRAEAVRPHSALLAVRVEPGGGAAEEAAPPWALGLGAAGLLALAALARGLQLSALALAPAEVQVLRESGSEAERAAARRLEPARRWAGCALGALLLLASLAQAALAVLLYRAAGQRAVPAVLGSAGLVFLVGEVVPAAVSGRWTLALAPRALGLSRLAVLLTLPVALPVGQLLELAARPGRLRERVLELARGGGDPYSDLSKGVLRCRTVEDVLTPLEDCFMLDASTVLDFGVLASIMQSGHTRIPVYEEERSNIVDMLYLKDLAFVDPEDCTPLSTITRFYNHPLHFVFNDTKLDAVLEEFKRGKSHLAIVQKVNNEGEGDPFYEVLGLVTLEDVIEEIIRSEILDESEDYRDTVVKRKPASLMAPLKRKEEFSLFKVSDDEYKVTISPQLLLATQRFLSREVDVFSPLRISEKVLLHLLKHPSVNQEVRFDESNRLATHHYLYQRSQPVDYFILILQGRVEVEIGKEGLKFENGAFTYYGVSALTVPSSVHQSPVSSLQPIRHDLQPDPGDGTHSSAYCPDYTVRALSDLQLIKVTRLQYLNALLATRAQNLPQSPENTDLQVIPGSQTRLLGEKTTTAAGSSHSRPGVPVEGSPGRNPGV
UniProt Q9Y2Z9: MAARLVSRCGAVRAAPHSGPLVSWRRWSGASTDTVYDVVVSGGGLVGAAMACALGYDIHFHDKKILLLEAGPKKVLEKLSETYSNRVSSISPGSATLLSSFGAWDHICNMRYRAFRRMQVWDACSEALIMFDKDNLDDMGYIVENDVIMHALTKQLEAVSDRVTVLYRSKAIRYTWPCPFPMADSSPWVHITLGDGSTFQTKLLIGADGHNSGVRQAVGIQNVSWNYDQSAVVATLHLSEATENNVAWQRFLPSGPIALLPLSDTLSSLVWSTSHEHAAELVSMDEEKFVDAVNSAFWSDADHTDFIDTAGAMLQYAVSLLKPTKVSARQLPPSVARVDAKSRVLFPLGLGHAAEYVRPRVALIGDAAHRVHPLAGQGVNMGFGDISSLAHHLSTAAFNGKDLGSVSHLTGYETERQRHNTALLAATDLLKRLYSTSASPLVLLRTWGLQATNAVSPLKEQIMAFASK

Assays:
Experiment in all cases: log2 fold change, soluble protein after heating vs DMSO (PISA); higher = thermal stabilisation; K562 lysate, 10 uM; active = over 0.2 and 3.5 SD of the protein, either way, in both replicates (recomputed)
[1] = compound: C1=CC=C(C=C1)[C@H](COC2=CC3=C(C=C2)NC(=O)N3)NC(=O)C4=CC=CN(C4=O)CC5=CC(=C(C=C5)F)F
Outline: (§1)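 A 30 min treatment with 10 μM compound was applied to crude K562 extract at 1 mg/mL protein in PBS pH 7.4 with 1 mM MgCl2. Heating for 3 min spanned 48°C-58°C, after which aliquots were pooled, adjusted to 0.5% NP-40 at 4°C and spun at 21,000xg for 90 min. TMTpro 16plex LC-MS/MS of the supernatant, with channel sums equalised, gave values recorded as log-two fold change in thermal stability against solvent controls, from duplicates.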

[2] = compound: CC1=C(SC2=C1C(=N[C@H](C3=NN=C(N32)C)CC(=O)N)C4=CC=C(C=C4)Cl)C
Outline: as §1

[3] = compound: CC1=C2C(=CC=C1)N=C(N(C2=O)C3=CC=CC=C3C)CN4C=NC5=C(N=CN=C54)N
Outline: as §1

[4] = compound: Cc1sc2c(c1C)C(c1ccc(Cl)cc1)=N[C@@H](CC(=O)OC(C)(C)C)c1nnc(C)n1-2
Outline: as §1

[5] = compound: c1ccc([C@@H]2C[C@H]2NC2CCNCC2)cc1
Outline: as §1

Measured: log2 fold change

COX7C (UniProt P15954)
inactive: [1] -0.044 | [2] 0.09 | [3] 0.029 | [4] 0.127 | [5] 0.169

COG6 (UniProt Q9Y2V7)
inactive: [1] -0.023 | [2] 0.011 | [3] 0.029 | [4] -0.032 | [5] 0.069

COMMD2 (UniProt Q86X83)
inactive: [1] 0.087 | [2] -0.001 | [3] 0.005 | [4] 0.022 | [5] 0.054

COMMD3 (UniProt Q9UBI1)
inactive: [1] -0.055 | [2] -0.023 | [3] 0.048 | [4] 0.002 | [5] 0.051

CPS1 isoform 3 (UniProt P31327)
inactive: [1] -0.001 | [2] 0.014 | [3] 0.059 | [4] -0.154 | [5] -0.065

COA6 isoform 2 (UniProt Q5JTJ3)
inactive: [1] 0.076 | [2] -0.036 | [3] -0.081 | [4] -0.035 | [5] -0.023

CNPY3 (UniProt Q9BT09)
inactive: [1] 0.019 | [2] -0.001 | [3] 0.004 | [4] -0.013 | [5] 0.041

COG4 (UniProt Q9H9E3)
inactive: [1] 0.005 | [2] 0.034 | [3] 0.096 | [4] -0.036 | [5] 0.011

COMMD4 (UniProt Q9H0A8)
inactive: [1] -0.008 | [2] 0.008 | [3] -0.025 | [4] 0.004 | [5] 0.06

COPS7B isoform 3 (UniProt Q9H9Q2)
inactive: [1] 0.032 | [2] -0.004 | [3] 0.012 | [4] -0.019 | [5] -0.154

COG1 (UniProt Q8WTW3)
inactive: [1] -0.053 | [2] -0.047 | [3] 0.074 | [4] -0.041 | [5] 0.008

CPVL (UniProt Q9H3G5)
inactive: [1] -0.048 | [2] -0.029 | [3] 0.001 | [4] -0.293 | [5] -0.107

CNOT9 (UniProt Q92600)
inactive: [1] 0.003 | [2] -0.005 | [3] 0.006 | [4] -0.023 | [5] 0.007

CPOX (UniProt P36551)
inactive: [1] 0.037 | [2] -0.019 | [3] -0.014 | [4] 0.034 | [5] -0.038

COX6B1 (UniProt P14854)
inactive: [1] 0.02 | [2] -0.04 | [3] 0.003 | [4] 0.036 | [5] 0.063

CNNM4 (UniProt Q6P4Q7)
inactive: [1] 0.065 | [2] 0.134 | [3] 0.052 | [4] 0.009 | [5] -0.037

COPRS (UniProt Q9NQ92)
inactive: [1] -0.007 | [2] -0.026 | [3] 0.012 | [4] -0.137 | [5] -0.063

CPQ (UniProt Q9Y646)
inactive: [1] 0.025 | [2] 0.066 | [3] 0.05 | [4] -0.03 | [5] 0.01

CRABP2 (UniProt P29373)
inactive: [1] -0.057 | [2] -0.051 | [3] 0.055 | [4] -0.172 | [5] -0.001

CPSF4 (UniProt O95639)
inactive: [1] -0.101 | [2] -0.018 | [3] 0.023 | [4] 0.039 | [5] 0.015

COG7 (UniProt P83436)
inactive: [1] -0.026 | [2] 0.026 | [3] 0.01 | [4] -0.034 | [5] 0.012

COX5B (UniProt P10606)
inactive: [1] -0.031 | [2] -0.037 | [3] -0.037 | [4] -0.039 | [5] 0.064

COX7A2L (UniProt O14548)
inactive: [1] -0.073 | [2] -0.012 | [3] -0.038 | [4] -0.026 | [5] -0.059

CNNM3 (UniProt Q8NE01)
inactive: [1] 0 | [2] 0.067 | [3] 0.051 | [4] 0.02 | [5] 0.023

Quoted from the entries so far (six entries):
COPRS (UniProt Q9NQ92)
inactive: [1] -0.007 | [2] -0.026 | [3] 0.012 | [4] -0.137 | [5] -0.063

CPQ (UniProt Q9Y646)
inactive: [1] 0.025 | [2] 0.066 | [3] 0.05 | [4] -0.03 | [5] 0.01

CRABP2 (UniProt P29373)
inactive: [1] -0.057 | [2] -0.051 | [3] 0.055 | [4] -0.172 | [5] -0.001

CPSF4 (UniProt O95639)
inactive: [1] -0.101 | [2] -0.018 | [3] 0.023 | [4] 0.039 | [5] 0.015

COG7 (UniProt P83436)
inactive: [1] -0.026 | [2] 0.026 | [3] 0.01 | [4] -0.034 | [5] 0.012

COX5B (UniProt P10606)
inactive: [1] -0.031 | [2] -0.037 | [3] -0.037 | [4] -0.039 | [5] 0.064

Next part

COQ6 (UniProt Q9Y2Z9)
inactive: [1] -0.054 | [2] 0.048 | [3] 0.02 | [4] -0.017 | [5] 0.016

COPS7B (UniProt Q9H9Q2)
inactive: [1] 0.058 | [2] -0.017 | [3] 0 | [4] 0.029 | [5] 0.027
